# Laboratory results: PubChem BioAssay (NCATS)
# Inconclusive results, whose numbers are uncertain, are shown with a selection of clear calls. Where the call is inconclusive, the potency comes from a doubtful curve fit. Calls of active or inactive are those of the source. The call rests on the fitted dose curve; in most records, active means well fitted cell-killing curve with a large enough effect; inconclusive means small, poorly fitted or top-dose-only effect, or effect the other way; inactive means no such curve, though single readings can be large or run the other way.
# Experiment: Quantitative High-Throughput drug screen in 47 multiple myeloma cell lines against the NCATS MIPE library collection: U266_ATCC cell viability assay (AID 1919864); further: nearly all actives have a fitted effect of over 35% in size
# Details: U266 myeloma viability, CellTiter-Glo ATP luminescence, 48 h; series mostly up to 45.8 µM; viability (% of DMSO control): at the top concentration
# Description: PI: Beverly A. Mock Ph.D.
# Laboratory of Cancer Biology and Genetics,
# Center for Cancer Research, National Cancer Institute,
# National Institute of Health, Bethesda, Maryland
# Drug resistance and disease progression are common in multiple myeloma (MM) patients, underscoring the need for new therapeutic combinations. […] We hypothesized that effective combinations would reduce MYC expression and enhance p16 activity. […] These preclinical data identify potentially useful drug combinations for evaluation in drug-resistant MM and reveal potential mechanisms of combined drug sensitivity.
# Described herein is the primary MIPE qHTS used to cherrypick compounds. Validated compounds were then further tested for potential synergistic activiy.
# [1] Peat TJ, Gaikwad SM, Dubois W, Gyabaah-Kessie N, Zhang S, Gorjifard S, Phyo Z, Andres M, Hughitt VK, Simpson RM, Miller MA, Girvin AT, Taylor A, Williams D, D'Antonio N, Zhang Y, Rajagopalan A, Flietner E, Wilson K, Zhang X, Shinn P, Klumpp-Thomas C, McKnight C, Itkin Z, Chen L, Kazandijian D, Zhang J, Michalowski AM, Simmons JK, Keats J, Thomas CJ, Mock BA. Drug combinations identified by high-throughput screening promote cell cycle transition and upregulate Smad pathways in myeloma. Cancer Lett. 2023 Aug 1;568:216284. doi: 10.1016/j.canlet.2023.216284. Epub 2023 Jun 24. PMID: 37356470; PMCID: PMC10408729.
# SEQUENCE No. (e.g., 1, 2, 3, etc.); […] (e.g., Cells, Incubation, Reagent, etc.); VALUE and DESCRIPTION.
# 1; Cells; 5 uL; white, solid bottom 1536-well Greiner assay plate.
# 2; Compounds; 23 nL; Kalypsis pin tool (Wako USA) equipped with a 1536-well pin head to transfer to the assay plates.
# 3; Incubation; 48 hours; 37C incubation.
# 4; Reagent;5uL; CellTiter Glo (Promega).
# 5; Detector; 425V; Luminescence; Viewlux PerkinElmer.
# NOTES (numbers refer to Sequence numbers above)
# 1. The cell-based screening methods employed in this study were like those previously published. Briefly, the corresponding myeloma cell lines were screened in 1,536-well plates with 500 cells, 5-uL per well for inhibition of cell viability (assessed by measuring ATP levels with CellTiterGlo).
# 2. NCATS MIPE 4.0 library of approved and investigational drugs were added using the Kalypsis pin tool. Wells treated with DMSO only for 100% viability and media only for 0% viability were used as controls.
# 3. The assay plates were covered and incubated for 48 hours in a 37C, 5% CO2 incubator with controlled humidity.
# 4. After 48 hours, CellTilter-GloTM luminescent substrate mix (Promega) reagent was added to the assay plate and plates we incubated for 5 min at room temperature.
# 5. Signal was measured as median relative luminescence units on a ViewLux (PerkinElmer) multiplate reader.
# [1] Heske CM, Davis MI, Baumgart JT, Wilson K, Gormally MV, Chen L, Zhang X, Ceribelli M, Duveau DY, Guha R, Ferrer M, Arnaldez FI, Ji J, Tran HL, Zhang Y, Mendoza A, Helman LJ, Thomas CJ. Matrix Screen Identifies Synergistic Combination of PARP Inhibitors and Nicotinamide Phosphoribosyltransferase (NAMPT) Inhibitors in Ewing Sarcoma. Clin Cancer Res. 2017 Dec 1;23(23):7301-7311. doi: 10.1158/1078-0432.CCR-17-1121. Epub 2017 Sep 12. PMID: 28899971; PMCID: PMC6636827.
# Potency means the concentration at half of the fitted maximal effect.
Structure (SMILES),Potency,viability (% of DMSO control)
Cc1csc(NC(=O)c2sc3nc4c(c(C(F)(F)F)c3c2N)CCC4)n1,active: 7.43 µM,
O=C(Nc1ccc(F)c(C(F)(F)F)c1)Nc1nnc(-c2ccncc2)s1,"inconclusive: 26.4 µM [cytotoxic, partial curve, poor fit]",
CC(C)(O)[C@H]1CC[C@@](C)([C@H]2[C@@H](O)C[C@@]3(C)[C@@H]4C[C@H](O[C@@H]5O[C@H](CO)[C@@H](O)[C@H](O)[C@@H]5O)[C@H]5C(C)(C)[C@@H](O[C@@H]6OC[C@@H](O)[C@H](O)[C@@H]6O)CC[C@@]56C[C@@]46CC[C@]23C)O1,,inactive: 125%
Cc1[nH]c(=O)c(C#N)cc1-c1ccncc1,"inconclusive: 37.2 µM [cytotoxic, single point]",
CC(C)NCC(O)c1ccc(O)c(O)c1 (stereo not given),active: 16.6 µM,
CCC(CC)[C@H](NC(C)=O)[C@@H]1[C@H](O)[C@@H](C(=O)O)C[C@@H]1N=C(N)N,"inconclusive: 0.0059 µM [rising, full curve, poor fit]",
CC(C=CC1=C(C)CCCC1(C)C)=CC=CC(C)=CC(=O)O,"inconclusive: 26.4 µM [cytotoxic, single point]",
C=C1C(=CC=C2CCC[C@]3(C)[C@@H]([C@H](C)CCCC(C)(C)O)CC[C@@H]23)C[C@@H](O)C[C@@H]1O,active: 4.18 µM,
COc1cc2c(Oc3ccc(NC(=O)C4(C(=O)Nc5ccc(F)cc5)CC4)cc3F)ccnc2cc1OCCCN1CCOCC1,active: 20.9 µM,
CC(C)CNc1ccnc(NCc2csc(-c3ccccc3)n2)n1,active: 20.9 µM,
CS(=O)(=O)N(Cc1ccco1)CC(O)Cn1c2ccccc2c2ccccc21 (stereo not given),active: 18.7 µM,
COC(=O)Nc1nc2ccc(Sc3ccccc3)cc2[nH]1,"inconclusive: 0.935 µM [cytotoxic, full curve, poor fit]",
O=c1cc(-c2ccccc2)oc2cc(O)c(O)c(O)c12,"inconclusive: 13.2 µM [cytotoxic, partial curve, poor fit]",
Clc1ccc(C(Cn2ccnc2)OCc2ccc(Sc3ccccc3)cc2)c(Cl)c1 (stereo not given),,inactive: 109%
O=C1Cc2cc(CCN3CCN(c4nsc5ccccc45)CC3)c(Cl)cc2N1,"inconclusive: 33.2 µM [cytotoxic, single point]",
NC1CCC(Nc2nc(Nc3ccc(C(=O)N4CCCCC4)cc3)c3ncn(-c4cccc(F)c4)c3n2)CC1 (stereo not given),,inactive: 147%
CCNC(=O)CCCC=CC[C@@H]1[C@H](C=CC(O)CCc2ccccc2)[C@@H](O)C[C@@H]1O (stereo not given in full),,inactive: 127%
CC1=C(C)C(=O)C(C(CCCCCC(=O)O)c2ccccc2)=C(C)C1=O (stereo not given),"inconclusive: 0.0026 µM [rising, full curve, poor fit]",
Cc1cc2c(s1)Nc1ccccc1N=C2N1CCN(C)CC1,,inactive: 120%
Oc1cc(O)cc(C=Cc2ccc(O)c(O)c2)c1,"inconclusive: 33.2 µM [cytotoxic, single point]",

# A run of entries from further up:
Structure (SMILES),Potency,viability (% of DMSO control)
CS(=O)(=O)N(Cc1ccco1)CC(O)Cn1c2ccccc2c2ccccc21 (stereo not given),active: 18.7 µM,
COC(=O)Nc1nc2ccc(Sc3ccccc3)cc2[nH]1,"inconclusive: 0.935 µM [cytotoxic, full curve, poor fit]",
O=c1cc(-c2ccccc2)oc2cc(O)c(O)c(O)c12,"inconclusive: 13.2 µM [cytotoxic, partial curve, poor fit]",
Clc1ccc(C(Cn2ccnc2)OCc2ccc(Sc3ccccc3)cc2)c(Cl)c1 (stereo not given),,inactive: 109%
O=C1Cc2cc(CCN3CCN(c4nsc5ccccc45)CC3)c(Cl)cc2N1,"inconclusive: 33.2 µM [cytotoxic, single point]",
NC1CCC(Nc2nc(Nc3ccc(C(=O)N4CCCCC4)cc3)c3ncn(-c4cccc(F)c4)c3n2)CC1 (stereo not given),,inactive: 147%
CCNC(=O)CCCC=CC[C@@H]1[C@H](C=CC(O)CCc2ccccc2)[C@@H](O)C[C@@H]1O (stereo not given in full),,inactive: 127%
CC1=C(C)C(=O)C(C(CCCCCC(=O)O)c2ccccc2)=C(C)C1=O (stereo not given),"inconclusive: 0.0026 µM [rising, full curve, poor fit]",
Cc1cc2c(s1)Nc1ccccc1N=C2N1CCN(C)CC1,,inactive: 120%
Oc1cc(O)cc(C=Cc2ccc(O)c(O)c2)c1,"inconclusive: 33.2 µM [cytotoxic, single point]",

# The results go on:

Structure (SMILES),Potency,viability (% of DMSO control)
CC1(C)Cc2c(sc(NC(=S)NC(=O)c3ccccc3)c2C(=O)O)CO1,"inconclusive: 29.6 µM [cytotoxic, single point]",
CCOC1OC(=O)C[C@H]1NC(=O)[C@@H]1CCCN1C(=O)[C@@H](NC(=O)c1ccc(N)c(Cl)c1)C(C)(C)C (stereo not given in full),"inconclusive: 33.2 µM [cytotoxic, single point]",
CS(=O)c1ccc(-c2nc(-c3ccc(F)cc3)c(-c3ccncc3)[nH]2)cc1 (stereo not given),"inconclusive: 34 µM [cytotoxic, partial curve, poor fit]",
O=C1CCc2ccc(OCCCCN3CCN(c4cccc(Cl)c4Cl)CC3)cc2N1,"inconclusive: 23.5 µM [cytotoxic, single point]",
O=C(CCCN1CCC(O)(c2ccc(Cl)cc2)CC1)c1ccc(F)cc1,"inconclusive: 26.4 µM [cytotoxic, single point]",
COc1ccnc(CS(=O)c2nc3ccc(OC(F)F)cc3[nH]2)c1OC (stereo not given),,inactive: 95.4%
CC(C)(O)c1cc2nc(-c3cnc(N)nc3)nc(N3CCOCC3)c2s1,active: 0.105 µM,
O=C(Nc1ccccc1)Nc1ccc(-c2ccc(C(=O)[C@H]3CCC[C@H]3C(=O)O)cc2)cc1,"inconclusive: 18.7 µM [cytotoxic, partial curve, poor fit]",
CNS(=O)(=O)CCc1ccc2[nH]cc(C3CCN(C)CC3)c2c1,"inconclusive: 0.833 µM [cytotoxic, full curve]",
N#CC1(c2ccc(NC(=O)c3cccnc3NCc3ccncc3)cc2)CCCC1,,inactive: 133%
O=c1c(O)c(-c2ccc(O)cc2)oc2cc(O)cc(O)c12,"inconclusive: 37.2 µM [cytotoxic, single point]",
Cc1cnc(Nc2ccc(OCCN3CCCC3)cc2)nc1Nc1cccc(S(=O)(=O)NC(C)(C)C)c1,"inconclusive: 37.2 µM [cytotoxic, single point]",
CC1=C(C(=O)O)N2C(=O)[C@@H](NC(=O)[C@H](N)C3=CCC=CC3)[C@H]2SC1,"inconclusive: 0.0066 µM [rising, full curve, poor fit]",
CC(C)C[C@@H](C(=O)N[C@H](C(=O)OC1CCCC1)c1ccccc1)[C@H](O)C(=O)NO,"inconclusive: 29.6 µM [cytotoxic, single point]",
CNC1CCCN(c2c(F)cc3c(=O)c(C(=O)O)cn(C4CC4)c3c2OC)C1 (stereo not given),"inconclusive: 20.9 µM [cytotoxic, partial curve, poor fit]",
NC(CO)C(=O)NNCc1ccc(O)c(O)c1O (stereo not given),"inconclusive: 33.2 µM [cytotoxic, single point]",
CN1CCN(C2=Nc3cc(Cl)ccc3Nc3ccccc32)CC1,,inactive: 118%
CO[C@H]1C=CC=C(C)C(=O)NC2=CC(=O)C(NCCN(C)C)=C(C[C@@H](C)C[C@H](OC)[C@@H](O)[C@@H](C)C=C(C)[C@@H]1OC(N)=O)C2=O,active: 0.0662 µM,
Nc1ccc(-c2ccc3ncc4ccc(=O)n(-c5cccc(C(F)(F)F)c5)c4c3c2)cn1,active: 0.372 µM,
CCn1cc(C(=O)O)c(=O)c2cc(F)c(N3CCNC(C)C3)c(F)c21 (stereo not given),"inconclusive: 0.0209 µM [rising, full curve, poor fit]",
